From ChEMBL document CHEMBL3988442, “University of Dundee, Small-Polar-MMV Screening Library” (2021).

Sequences of proteins named here, by UniProt entry; tags and fusion partners are left off. Residues count along the entry.
UniProt Q8IDJ8, 1-583: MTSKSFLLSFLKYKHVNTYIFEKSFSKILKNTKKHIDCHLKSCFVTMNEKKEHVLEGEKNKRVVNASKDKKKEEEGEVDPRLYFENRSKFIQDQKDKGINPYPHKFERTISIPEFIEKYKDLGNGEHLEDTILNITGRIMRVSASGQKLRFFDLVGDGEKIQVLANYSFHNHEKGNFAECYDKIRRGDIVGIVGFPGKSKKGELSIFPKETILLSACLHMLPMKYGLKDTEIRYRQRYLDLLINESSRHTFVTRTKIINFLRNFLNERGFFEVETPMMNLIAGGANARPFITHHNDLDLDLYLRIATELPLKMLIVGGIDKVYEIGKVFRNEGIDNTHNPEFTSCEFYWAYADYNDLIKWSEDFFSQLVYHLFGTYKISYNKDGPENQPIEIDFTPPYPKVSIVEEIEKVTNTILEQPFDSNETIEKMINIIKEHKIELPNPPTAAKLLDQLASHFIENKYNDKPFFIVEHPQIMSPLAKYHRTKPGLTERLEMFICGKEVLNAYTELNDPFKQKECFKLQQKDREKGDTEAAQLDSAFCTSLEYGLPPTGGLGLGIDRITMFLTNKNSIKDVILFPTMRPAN

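Enzyme assay of the cytosolic lysyl-tRNA synthetase in 384-well plates, read by luminescence. Target: Lysine-tRNA ligase, Plasmodium falciparum 3D7 (UniProt Q8IDJ8). Compounds at 30 µM. Direction is inferred from only a few compounds that gave an IC50; most scored high, so higher reads as stronger inhibition. Of about 69,000 compounds tested this way, about 49 (0.071%) reached 50% or more in at least one test.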

Results are given as percent effect. The controls that fix the scale are not given in the record; negative values are as filed. This is an unselected part of the compounds tested.

Compound | effect
CCn1cnnc1C1CCN(C(=O)c2ccc3ccccc3n2)CC1 | 6.105
Cc1nc2cc(O)nn2c(C)c1CCC(=O)N(C)Cc1ccccc1 | 7.171
O=C(O)c1csc(NCCc2ccccc2)n1 | 2.185
Cc1ccccc1OCC(=O)N1CCCC(CNS(C)(=O)=O)C1 (stereo not given) | 2.388
CC(C)(C)NC(=O)C1CSCN1S(=O)(=O)c1ccc(F)cc1 (stereo not given) | 6.388
COc1cc(F)ccc1NC(=O)NCCNC(=O)OC(C)(C)C | 4.277
CO[C@@H]1CCN(Cc2cccc(C)n2)[C@@H]2CN(Cc3ccncc3)C[C@@H]21 | 2.373
O=C(NC[C@@H]1CCCO1)c1cc(Br)cnc1N1CCCCC1 | 1.044
CC(C)(C)n1ncc2c1NC(=O)CSC2c1ccc2c(c1)OCO2 (stereo not given) | 5.641
CCOC(CC)C(=O)NCc1ccnc(Oc2ccc(F)cc2)c1 (stereo not given) | -1.203
NC(=O)C1CCN(C(=O)c2ccn(-c3ccc(F)cc3)n2)C1 (stereo not given) | 5.082
CSc1nccn1-c1cccc(C(=O)NCC(F)(F)F)c1 | 0.9927
CC(C)c1ccc(OCCC(=O)N2CCC(C(=O)N(C)C)CC2)cc1 | -1.205
COc1ccc(CC(=O)N2CCCCC2Cn2cccn2)cc1OC (stereo not given) | 2.078
Cc1ccc(CNC(=O)NC(C)Cn2cccn2)cn1 (stereo not given) | 1.138
CCCN(C(=O)c1ccccn1)c1nc2c(s1)CCc1c-2cnn1C | 50.41
Cc1nc(NCCCn2cccn2)c2c(n1)c(C)nn2C | 2.316
O=C(CCCN1CCCCC1)N1CCN(C(=O)c2ccc[nH]2)CC1 | -0.9169
Cc1csc(CN(C)CCCOc2cccc(C#N)c2)n1 | 0.02376
O=C(c1ccncc1)N1CCCn2c(CN3CCCC3)nnc2C1 | 4.903
CCc1nnsc1C(=O)N1CCCN(Cc2cnn(C)c2)CC1 | -0.2364
Cc1cn2c(n1)CCC(NC(=O)CCn1cncn1)C2 (stereo not given) | -0.8618
CC(C)Oc1ncccc1CNC(=O)N1CCC(n2cccc2)CC1 | -0.1582
CC(=O)N(CCc1ccccc1)CC(=O)Nc1ccccc1C#N | -1.127
COc1c(Br)c(CC2CC(CO)=NO2)c(Br)c2c1OCO2 (stereo not given) | 7.429
O=C(CCc1cccnc1)N1CCCCC1c1ccn2ccnc2n1 (stereo not given) | 0.7514
Fc1cccc(N2CCc3ncnc(N4CCOCC4)c3CC2)c1 | 2.869
Cn1ncc2c(=O)[nH]c(CN3CCCC3c3ccsc3)nc21 (stereo not given) | 1.569
Cc1nnsc1CN1C[C@H]2CC[C@@H]1CN(Cc1ccccc1)C2 | 2.233
O=C(c1ccccn1)N1CCC(Nc2cccnn2)CC1 | -9.04
COc1ccccc1N1CCN(Cc2cnc3c(c2)c(C)nn3C)CC1 | 1.318
N#Cc1ccc(N2CCCN(CC(=O)N3CCC3)CC2)cc1 | 7.197
CC(C)(C)c1cnc(CN2CCCS2(=O)=O)o1 | 13.37
CCC(O)CN1CCN(C(=O)c2sccc2OC)CC1 (stereo not given) | 4.805
CO[C@H]1CC[C@H]2[C@H]1OCCN2CCOCc1ccccc1 | 5.929
O=C(C1CCC1)N1CCN(Cc2ccsc2)[C@H]2CS(=O)(=O)C[C@H]21 | 0.6347
Cn1ccc(C(=O)NC2CCC23CCN(Cc2nccs2)CC3)c1 (stereo not given) | 5.174
O=C(CN1C(=O)CCC1=O)N1CCC(CSCc2ccco2)CC1 | 1.42
Cc1nc(CCN)cc(N2CCCN(C(=O)c3ccco3)CC2)n1 | 2.586
Cc1ccc(C(C)NC(=O)Cc2c(C)nc3cc(=O)[nH]n3c2C)s1 (stereo not given) | 4.69
CC(C(=O)NC1(C#N)CCCCC1)N1CCc2c(ncn2C)C1 (stereo not given) | 4.781
COC(=O)CNCC1(O)CCCN(Cc2cccc(F)c2F)C1=O (stereo not given) | 0.6874
Cc1ccsc1-c1nccn1CCN(C)S(C)(=O)=O | 1.122
CN1CCC(Cc2noc(-c3cccc(OCC(N)=O)c3)n2)CC1 | -1.98
N#Cc1ccccc1CN1C[C@@H]2CC[C@H](C1)N(CC1CC1)C2=O | 0.555
Cc1cc(NC(=O)CN2CCOC(Cn3cccn3)C2)n(C)n1 (stereo not given) | 6.43
O=C(NC[C@H]1C[C@@H]2CCN1C[C@@H]2CN1CCCCC1)c1ccco1 | -0.2018
CSCCCN1CC[C@@H](NC(=O)c2cnccn2)[C@H](O)C1 | -1.966
CCSCCC(=O)NC1CCN(C(C)c2ccccc2)CC1 (stereo not given) | 5.365
CN1CCN(c2ncnc3c2CCN(S(=O)(=O)C2CC2)CC3)CC1 | 3.685
CC(=O)N1C[C@H](NC(=O)c2ccnc(N)c2)[C@@H](C(C)C)C1 | -0.1097
O=C(COCC1CC1)Nc1ncccc1O | 4.589
COc1cccc(N2CCC(CNC(=O)NCc3ccco3)C2)c1 (stereo not given) | 2.133
CCOCCCC(=O)NCc1ccnc(N2CCN(C)CC2)c1 | 2.627
O=c1c2cnc(N3CCCCC3)nc2ccn1-c1ccccc1F | 3.419
Cc1ccc(-c2nc(CNC(C)Cn3cccn3)cs2)o1 (stereo not given) | -1.12
CCCNC(=O)c1ccc(-c2ccco2)[nH]c1=O | 2.266
CNC(=O)[C@@H]1C[C@@H](NC(=O)CSc2ccccc2)CN1C1CCOCC1 | 4.493
CN1CCN(C2CCN(Cc3noc(C4CC4)n3)CC2)C1=O | -0.8437
O=C(NCCc1ccsc1)c1ccoc1 | 7.367
O=C(c1ccc(N2CCOCC2)nc1)N1CCCC(n2ccnc2)C1 (stereo not given) | 0.9206

Some entries from above, unchanged:

| Compound | effect |
|---|---|
| `CCCNC(=O)c1ccc(-c2ccco2)[nH]c1=O` | 2.266 |
| `Fc1cccc(N2CCc3ncnc(N4CCOCC4)c3CC2)c1` | 2.869 |
| `CSc1nccn1-c1cccc(C(=O)NCC(F)(F)F)c1` | 0.9927 |
| `COc1c(Br)c(CC2CC(CO)=NO2)c(Br)c2c1OCO2` (stereo not given) | 7.429 |
| `O=c1c2cnc(N3CCCCC3)nc2ccn1-c1ccccc1F` | 3.419 |
| `Cc1nnsc1CN1C[C@H]2CC[C@@H]1CN(Cc1ccccc1)C2` | 2.233 |
| `CCCN(C(=O)c1ccccn1)c1nc2c(s1)CCc1c-2cnn1C` | 50.41 |